Here are results for two sequences from PMC8978962.

For at least one entry, the source does not settle the construct or the ends of the probe. Negatives hold for the conditions tested. At least one verdict rests on a figure or table, not on a statement of the authors.

This data set deals with CitbHLH2-His. The data set is described as follows: EMSA. The note with it: LightShift Chemiluminescent EMSA kit (Thermo), 1 nM biotin probe, 6% native polyacrylamide gel, binding buffer, pH and temperature not stated, recombinant protein, protein details: His (pET-32a fusion), label: 3' biotin. On the technique in general: Mobility shift assays separate free from complexed probe on a gel.

“TGTTTAAATATTATTGCTACGTGCCGGCGCC (double strand) [CitALMT promoter E-box mutant probe]”: for the setting “mutated probe, specificity stated as confirmed”, the binding result was “no binding”.
With “TTTAAATATTATCAATTGGTGCCGGCGCC (double strand) [CitALMT promoter E-box probe]”, the binding result (1 nM probe, cold probe competition at 50, 200, 500-fold) is “binds”.
